Measurements reported in article PMC4740771, “Nucleotide-dependent assembly of the peroxisomal receptor export complex” (Scientific Reports, 2016).
No constants are given. Whether binding was seen depends on the method and setting. Some entries that bind do so weakly or less than the wild type. Tags and fused reporters may be left off the sequences shown.

T1: HisPex1p(E798Q) released from its GST fusion (S. cerevisiae) (UniProt P24004)
T1 sequence: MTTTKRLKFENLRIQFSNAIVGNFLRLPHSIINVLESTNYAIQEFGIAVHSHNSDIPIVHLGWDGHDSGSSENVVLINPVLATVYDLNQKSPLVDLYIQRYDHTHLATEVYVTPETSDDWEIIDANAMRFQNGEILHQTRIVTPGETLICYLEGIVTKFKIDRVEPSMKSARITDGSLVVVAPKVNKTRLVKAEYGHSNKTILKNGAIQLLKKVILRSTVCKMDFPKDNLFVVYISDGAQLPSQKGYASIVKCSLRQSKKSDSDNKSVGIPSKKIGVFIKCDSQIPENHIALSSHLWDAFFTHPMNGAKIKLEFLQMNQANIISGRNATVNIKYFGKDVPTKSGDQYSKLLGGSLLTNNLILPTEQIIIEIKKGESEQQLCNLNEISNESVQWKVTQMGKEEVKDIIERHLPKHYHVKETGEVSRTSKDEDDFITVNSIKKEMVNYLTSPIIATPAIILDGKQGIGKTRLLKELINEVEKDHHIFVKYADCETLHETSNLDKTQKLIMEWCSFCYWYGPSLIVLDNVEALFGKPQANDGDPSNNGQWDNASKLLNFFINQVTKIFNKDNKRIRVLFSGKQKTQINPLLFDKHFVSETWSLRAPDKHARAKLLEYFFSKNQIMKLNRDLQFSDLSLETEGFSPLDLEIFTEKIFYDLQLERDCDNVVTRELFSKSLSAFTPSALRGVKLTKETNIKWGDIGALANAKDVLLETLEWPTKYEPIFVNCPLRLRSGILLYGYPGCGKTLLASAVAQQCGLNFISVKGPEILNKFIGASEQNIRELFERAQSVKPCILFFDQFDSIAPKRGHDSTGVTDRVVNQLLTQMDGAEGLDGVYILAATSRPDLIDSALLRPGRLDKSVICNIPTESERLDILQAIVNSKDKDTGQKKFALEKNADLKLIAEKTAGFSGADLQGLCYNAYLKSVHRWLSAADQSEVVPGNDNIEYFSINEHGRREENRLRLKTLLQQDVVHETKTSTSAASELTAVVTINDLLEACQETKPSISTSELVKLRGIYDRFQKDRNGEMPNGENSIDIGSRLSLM

B1: HisPex6p (natural protein, S. cerevisiae, UniProt P33760 1-1030, looked up)
chain: MKASLTFSLSGIYAPCSISRDIYLEYGDKKAECLYGTIRLPQYGPGCTPGKIVHCVLDDSLPFCSIVVPSKLFGFMPTQPTMDFCYFEPILDNVVPVLDSVTFLINEQLYSKLMDLPQEMQQIQFLHYKYNINSMETVVHSRDILTSGLCQILNCSPFPQGLVDFTETQLILVNDTEQKLSALKYANEDEEYALPKIGTNSALSIDLESLPCTISRDLLRPAPHINDDNSIYAFTDAETLLRLDVTSGSFITVSNMGCVRLVKLFVLLLPNGFKKRTIYAPPKIIASFPDCSVVTISKSNIGHTDIPIANQVFISRVGGWLQSQKCFQNIILTTLKKFFSESKRILCQNDLIPIAFDSSMADLNIAEENDESDDEDELGQYYKNDSLVWFFVTSAELDCFSKDNSHFIIDPNRTKLITTNITNRRPLPLSRSNLQRYYGFAETFYYDLHIFPYVRQLVNILETSFNCSQRGITLNASVLLHSTTNNVGKATMVRFASKYLGIHLLEIDCLSLTSNSRQLDSTSKIIGYIRAKCENVLPYASPAVIFLAHLDSILLDVNANQDPEAIKLQKSINFEMSKLLDDFTFKFPGTTFVGSVNNIDNVPSSFRSHMRFEILVPVPSEAQRLRIFQWYLSSHELNRDVQQKVPVSYMDNISFSSLSSYSAGLTPLDIKSIVETARMTATARFYQESKKCGWLPQSILITQEDLSKATSKARNEFSVSIGAPQIPNVTWDDIGGIDFVKGEILDTIDMPLKHPELFTSGMKKRSGILFYGPPGTGKTLMAKAIATNFSLNFFSVKGPELLNMYIGESEANVRRVFQKAREAKPCVIFFDEIDSVAPKRGNQGDSGGVMDRIVSQLLAELDGMSTDADGVFVIGATNRPDLLDEALLRPGRFDKLLYLGIPDTDTKQLNILEALTRKFVLDNDVKLIELAKLCPFNYTGADFYALCSDAMLNAMSRIARMVEKKVSQHNELTGENISTRRWFDKIATKEDTKVVVKMEDFLKAQEQLTPSVSRAELNHYEAVRANFEGA
notes: Pex6p, type II AAA-ATPase peroxin of yeast; also called single Pex6p; isolated Pex6p; source: E. coli Tuner (DE3), purified (NiNTA-agarose; with HisPex1pGST also GSH-agarose and size exclusion); not shown: His6, N-terminal, kept

How the values were obtained:
[1] = target: T1, HisPex1p(E798Q) released from its GST fusion (S. cerevisiae); assay: SEC; complexes of wild-type or Walker B mutant Pex1p with Pex6p purified by tandem affinity chromatography and size exclusion chromatography; nucleotide not stated for this experiment; both purified
HisPex6p = target: B1; assay: SEC; second gel filtration of the purified heterohexameric complexes after incubation at 37 °C; both purified

Binder: B1
- binding [1]: binds
- binding (HisPex6p): no binding
